From patent publication US20260132219A1 come the findings set out here.

Amino acid sequences for entries named in this document (tags omitted). A change or cut given only in a name is not applied to a line headed by its entry. Chains listed by the source or under a name are the forms on record and can include a tag or linker.
UniProt P21860: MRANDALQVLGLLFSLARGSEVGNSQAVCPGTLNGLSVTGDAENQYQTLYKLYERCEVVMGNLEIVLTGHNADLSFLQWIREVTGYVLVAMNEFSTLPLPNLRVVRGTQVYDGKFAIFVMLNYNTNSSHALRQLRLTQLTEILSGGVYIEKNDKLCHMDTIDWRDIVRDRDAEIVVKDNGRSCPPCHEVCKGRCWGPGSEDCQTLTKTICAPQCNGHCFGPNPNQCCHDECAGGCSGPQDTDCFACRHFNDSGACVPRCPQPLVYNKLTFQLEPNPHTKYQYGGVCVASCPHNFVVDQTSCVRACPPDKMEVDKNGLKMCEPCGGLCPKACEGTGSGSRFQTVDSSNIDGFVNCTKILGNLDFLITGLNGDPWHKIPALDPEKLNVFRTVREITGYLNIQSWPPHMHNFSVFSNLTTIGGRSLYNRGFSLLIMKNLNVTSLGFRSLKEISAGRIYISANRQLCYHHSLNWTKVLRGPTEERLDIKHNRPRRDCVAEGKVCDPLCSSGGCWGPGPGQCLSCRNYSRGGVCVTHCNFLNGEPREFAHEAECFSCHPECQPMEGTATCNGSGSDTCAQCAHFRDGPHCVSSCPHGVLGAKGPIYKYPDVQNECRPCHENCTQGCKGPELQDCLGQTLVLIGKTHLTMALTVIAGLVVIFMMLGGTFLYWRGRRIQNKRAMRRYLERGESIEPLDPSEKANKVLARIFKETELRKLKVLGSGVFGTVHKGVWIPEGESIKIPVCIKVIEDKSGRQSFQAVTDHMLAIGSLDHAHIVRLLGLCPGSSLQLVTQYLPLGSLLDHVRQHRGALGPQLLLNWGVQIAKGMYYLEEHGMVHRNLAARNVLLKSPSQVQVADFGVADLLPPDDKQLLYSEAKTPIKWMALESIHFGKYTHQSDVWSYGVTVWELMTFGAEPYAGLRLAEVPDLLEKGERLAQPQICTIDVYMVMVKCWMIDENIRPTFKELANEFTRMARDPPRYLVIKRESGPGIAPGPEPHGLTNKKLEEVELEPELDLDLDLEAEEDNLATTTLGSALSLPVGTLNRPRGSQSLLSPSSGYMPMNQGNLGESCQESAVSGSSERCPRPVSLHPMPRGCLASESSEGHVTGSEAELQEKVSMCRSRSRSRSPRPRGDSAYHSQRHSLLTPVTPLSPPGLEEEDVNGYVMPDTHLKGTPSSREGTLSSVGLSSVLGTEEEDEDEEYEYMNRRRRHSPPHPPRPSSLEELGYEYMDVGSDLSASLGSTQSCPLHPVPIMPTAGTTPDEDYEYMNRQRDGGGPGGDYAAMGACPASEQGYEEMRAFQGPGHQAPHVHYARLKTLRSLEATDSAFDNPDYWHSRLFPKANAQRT
cynomolgus macaque HER3 (Sino Biological Inc.) (G7PIG5, form named): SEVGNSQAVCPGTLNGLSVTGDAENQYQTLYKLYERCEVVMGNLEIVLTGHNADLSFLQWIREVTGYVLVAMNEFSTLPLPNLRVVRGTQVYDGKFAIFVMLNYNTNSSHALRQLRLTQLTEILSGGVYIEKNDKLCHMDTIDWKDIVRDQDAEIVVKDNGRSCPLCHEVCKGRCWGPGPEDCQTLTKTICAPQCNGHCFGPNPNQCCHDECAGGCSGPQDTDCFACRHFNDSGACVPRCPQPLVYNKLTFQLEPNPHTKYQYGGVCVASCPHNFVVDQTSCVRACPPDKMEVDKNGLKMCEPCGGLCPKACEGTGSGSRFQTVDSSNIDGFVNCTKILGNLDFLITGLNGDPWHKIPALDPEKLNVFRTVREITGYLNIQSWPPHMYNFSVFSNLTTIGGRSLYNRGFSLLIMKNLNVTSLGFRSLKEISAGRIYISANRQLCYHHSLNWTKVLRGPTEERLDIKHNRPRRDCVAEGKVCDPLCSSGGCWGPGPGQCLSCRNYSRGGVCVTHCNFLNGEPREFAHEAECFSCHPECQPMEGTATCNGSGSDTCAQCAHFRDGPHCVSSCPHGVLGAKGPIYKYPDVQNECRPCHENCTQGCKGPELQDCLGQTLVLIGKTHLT

Assay [1] addresses His-tagged human HER3 (human) (UniProt P21860). In words: BLI (Octet QK384), antibody on AHC tips. For orientation: In BLI a coated tip is dipped into the sample, and binding shifts an interference pattern.
Assay [2] addresses cynomolgus macaque HER3 (Sino Biological Inc.) (cynomolgus macaque) (UniProt G7PIG5). In words: ELISA, target polypeptide coated. A general note: In an ELISA, binding on a coated surface is turned into a signal by an enzyme label.

Substitutions are numbered along the chain they refer to. No constants are given. Whether binding was seen depends on the method and setting. Some binding calls cover weakened binding; strength is not graded here.

B1: anti-HER3 clone 10D1_c85o2 IgG1 (antibody, V domains shown)
VH: DVQLQEWGAGLLKPSETLSLTCAVTGYSITSGYSWHWIRQFPGKGLEWIGSIRYSGGTNYNPSLKSRITISRDTSKNQFSLKLGSVTAADTAVYFCARGTTAPRYPFDYWGQGTLVTVSS
VL: DIVMTQSPSSLSASVGDRVTITCKASQIVGSNVAWYQQKPGKSPKPLIYSARYQYSGVPFRFSGSGSGTDFTLTISSLQPEDVATYYCQQYSSHPLTFGPGTKVEIKR
Consider B1, for which, in assay [1], the binding entry is on record as “binds”.

B2: 10D1F.FcA (anti-HER3 clone 10D1_c89 IgG1) (antibody, V domains shown)
VH: QVQLQESGPGLVKPSQTLSLTCTVSGYSITSGYSWHWIRQHPGKGLEWIGSIRYSGGTDYNPSLKSLVTISADTSKNQFSLKLSSVTAADTAVYYCARMTTAPWYPFDYWGQGTTVTVSS
VL: B1 VL with V3Q, L11V, S43A, K45E, R52S, Q54L, F60S, V83F, P100Q, V104L
B2: the binding entry in assay [2] is “binds”.
